Source: PubChem BioAssay AID2685 (National Center for Advancing Translational Sciences (NCATS), 2010)
The list shows a part of the results. Further columns of the screen follow, without active or inactive calls. Compounds called inactive in the main read-out are mostly missing here. Potencies come from curve fits of mixed quality, noted in brackets. Where a SMILES comes first, the peptide text is derived from it. [ ]: non-standard residue; d: D form. The star is where a group is joined. ξ: configuration not given here. Cbz = O=C(OCc1ccccc1)*; ξS = NC(CO)C(=O)O

Experiment: qHTS Assay for Lipid Storage Modulators in Drosophila S3 Cells;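 as to cell number change: cells counted by Cell Tracker Red CMTPX staining in the red channel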
Conditions: BODIPY lipid droplet fluorescence, 18-24 h; for cell number change: measured here: cell count max response, cells fed with added oleic acid
Method in brief: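 Laser-scanning cytometry quantifies lipid droplet accumulation (500–530 nm total intensity; droplet/cell object ratio) in oleic acid-fed (400 uM added) Drosophila S3 cells treated with a concentration series. 20 uM Triacsin C defined 100% inhibition.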

[1] = measured here: cell number channel AC50, cells fed with added oleic acid
[2] = measured here: lipid fluorescence (Fed channel) AC50, cells fed with added oleic acid

SMILES: CC(O)CNc1nc2ccccc2n1-c1ncnc2sc3c(c12)CCC3 (stereo unspecified)
- cell number change: -38.6%
- AC50 [1]: 23.1 µM [falling, single point]
- AC50 [2]: 0.731 µM [rising, full curve, poor fit]

SMILES: COc1cccc(NC(=O)C2CCN(S(=O)(=O)c3ccc4c(c3)NC(=O)CO4)CC2)c1
- cell number change: 12.7%
- AC50 [2]: 6.51 µM [rising, single point]

SMILES: Cc1cccc(C(=O)Nc2nnc(-c3ccncc3)o2)c1
- cell number change: -22.1%

SMILES: Cc1nc2nc(CNC(=O)OC(C)(C)C)nn2c(C)c1CCC(=O)Nc1ccc2c(c1)OCO2
- cell number change: -23.3%
- AC50 [2]: 29.1 µM [falling, single point]

SMILES: CCCN(CC(=O)Nc1c(C)cccc1CC)C(=O)SCC
- cell number change: 12%
- AC50 [2]: 0.58 µM [rising, single point]

SMILES: Oc1cc2ccccc2nc1-c1ccccc1Cl
- cell number change: -31.1%
- AC50 [1]: 23.1 µM [falling, single point]

SMILES: Cc1cc(C)c2sc(N(CCN(C)C)C(=O)c3ccc4ccccc4c3)nc2c1
- cell number change: 4.89%
- AC50 [2]: 29.1 µM [rising, single point]

SMILES: Cc1nn(CC(=O)NCc2cc3ccccc3[nH]2)c(C)c1[N+](=O)[O-]
- cell number change: -19.8%

SMILES: CCC(Sc1nc2ccccc2o1)C(=O)Nc1nnc(C)s1 (stereo unspecified)
- cell number change: -44.7%
- AC50 [1]: 0.58 µM [falling, full curve, poor fit]
- AC50 [2]: 1.84 µM [falling, full curve, poor fit]

SMILES: CCc1ccc2c(COC(=O)CNS(=O)(=O)c3ccc(NC(C)=O)cc3)cc(=O)oc2c1
- cell number change: 14.8%
- AC50 [2]: 14.6 µM [rising, partial curve]

SMILES: COCCNC(=O)c1c(N)n(CCCn2ccnc2)c2nc3ccccc3nc12
- cell number change: 23.6%
- AC50 [1]: 0.291 µM [rising, full curve]
- AC50 [2]: 18.4 µM [rising, partial curve]

SMILES: Cc1ccc(N(CC(=O)NC2CCCC2)C(=O)CNC(=O)c2cccs2)cc1F
- cell number change: 18.7%
- AC50 [2]: 29.1 µM [rising, partial curve]

SMILES: COc1ccccc1-n1cnc2cc(NC(C)=O)ccc21
- cell number change: 11%

SMILES: CCS(=O)(=O)c1ccc2oc(SCC(=O)N3CCCCC3)nc2c1
- cell number change: 55.6%
- AC50 [1]: 16.4 µM [rising, partial curve]
- AC50 [2]: 18.4 µM [rising, partial curve, poor fit]

SMILES: COc1cc(C)c(S(=O)(=O)NCCCn2ccnc2)cc1C
- cell number change: -19.9%
- AC50 [2]: 29.1 µM [falling, single point]

SMILES: COc1cc(C(=O)Nc2ccc(S(=O)(=O)NC(C)(C)C)cc2)cc(OC)c1OC
- cell number change: 51%
- AC50 [1]: 3.66 µM [rising, partial curve]
- AC50 [2]: 1.84 µM [rising, partial curve]

SMILES: COc1ccccc1C(=O)NCCC(=O)NC(C)CCc1ccccc1 (stereo unspecified)
- cell number change: -6.34%

SMILES: COc1ccc(C)cc1S(=O)(=O)N(CC(=O)O)c1ccc(C)cc1
- cell number change: 15.8%
- AC50 [2]: 18.4 µM [rising, single point]

SMILES: O=C(c1cccc([N+](=O)[O-])c1)N1CCc2ccccc21
- cell number change: 13.7%
- AC50 [2]: 0.00461 µM [falling, full curve, poor fit]

SMILES: N#Cc1cc2c(nc1SCC(=O)N1CCCCC1)CCCC2
- cell number change: 10.6%
- AC50 [2]: 29.1 µM [rising, single point]

SMILES: O=C(NC1CCN(Cc2ccccc2)CC1)c1ccccc1OCc1ccccc1Cl
- cell number change: -13.8%
- AC50 [2]: 25.9 µM [falling, single point]

SMILES: CCCN(C(=O)CN1C(=O)NC2(CCCCCC2)C1=O)C1CCS(=O)(=O)C1 (stereo unspecified)
- cell number change: -27.6%
- AC50 [2]: 13 µM [falling, partial curve]

SMILES: Cc1ccc(C(=O)Nc2nc3ccc(S(C)(=O)=O)cc3s2)s1
- cell number change: -37.5%
- AC50 [1]: 20.6 µM [falling, single point]
- AC50 [2]: 29.1 µM [falling, single point]

SMILES: N=c1sccn1CC(=O)Nc1ccc(S(=O)(=O)N2CCOCC2)cc1
- cell number change: -0.349%
- AC50 [2]: 0.0651 µM [falling, full curve, poor fit]

SMILES: Oc1ccccc1N1CCN(c2ncnc3scc(-c4ccccc4)c23)CC1
- AC50 [2]: 0.82 µM [falling, full curve]

SMILES: O=C(CN1C(=O)NC2(CCCC2)C1=O)Nc1cccc(Cl)c1
- cell number change: 4.62%

SMILES: CCOC(=O)c1cc2sc(C)cc2n1CC(=O)Nc1ccc2c(c1)OCCO2
- cell number change: -59.1%
- AC50 [1]: 3.26 µM [falling, partial curve, poor fit]
- AC50 [2]: 8.2 µM [falling, partial curve]

SMILES: CC1(C)C2CC=C(/C=N/NC(=O)C3CC3)C1C2 (stereo unspecified)
- AC50 [2]: 4.11 µM [falling, partial curve]

SMILES: O=C(NCc1ccco1)C1CCN(S(=O)(=O)c2cccc([N+](=O)[O-])c2)CC1
- cell number change: -2.63%

SMILES: COc1ccc(N(C(=O)c2snc(C(N)=O)c2N)C(C(=O)NC2CCCCC2)c2ccc(F)cc2)c(OC)c1 (stereo unspecified)
- AC50 [2]: 18.4 µM [falling, partial curve]

SMILES: COC(=O)c1[nH]c2ccccc2c1NS(=O)(=O)c1ccc(OC)cc1OC
- cell number change: 96.5%
- AC50 [1]: 29.1 µM [rising, single point]
- AC50 [2]: 0.13 µM [rising, full curve, poor fit]

SMILES: CCOc1cc(N2CCOCC2)c(OCC)cc1NC(=O)c1nn(CC)c(=O)c2ccccc12
- cell number change: 20.5%

SMILES: COc1ccc(N2CCN(C(=O)CN3C(=O)C4CC=CCC4C3=O)CC2)cc1 (stereo unspecified)
- AC50 [1]: 0.731 µM [rising, single point]

SMILES: O=C(N1CCCCCC1)N1CCN(S(=O)(=O)c2ccccc2)CC1
- cell number change: -35.5%
- AC50 [1]: 7.31 µM [falling, partial curve]

SMILES: CN1CCC(=O)N([C@H](CN=[N+]=[N-])c2ccccc2)CC1
- cell number change: -3.89%

SMILES: CN(C)S(=O)(=O)c1ccc2c(c1)c(=O)c(C(=O)N1CCN(c3ccccn3)CC1)cn2C
- cell number change: 20%

SMILES: COc1ccc(C2CC(C(F)(F)F)n3nc(C(=O)O)c(Br)c3N2)cc1 (stereo unspecified)
- cell number change: 3.58%

SMILES: Oc1ccc(Nc2nc(N3CCCC3)c3ccccc3n2)cc1
- cell number change: -32.9%
- AC50 [1]: 23.1 µM [falling, single point]
- AC50 [2]: 4.11 µM [rising, single point]

SMILES: Cc1cc(C(=O)COC(=O)c2ccc(O)cc2)c(C)n1CCc1ccc(F)cc1
- cell number change: 22.4%

SMILES: CCOC(=O)c1c(NC(C)=O)sc2c(O)cccc12
- cell number change: 58.1%
- AC50 [1]: 23.1 µM [rising, partial curve, poor fit]
- AC50 [2]: 2.59 µM [falling, full curve, poor fit]

SMILES: CC(=O)C1C(c2ccccc2OC(F)F)NC(=O)NC1(O)C(F)(F)F (stereo unspecified)
- cell number change: -10.3%
- AC50 [1]: 6.51 µM [rising, partial curve, poor fit]
- AC50 [2]: 5.17 µM [rising, single point]

SMILES: Cc1nn(C)c(C(=O)Sc2ccccc2)c1[N+](=O)[O-]
- cell number change: 16.1%
- AC50 [2]: 0.206 µM [falling, full curve, poor fit]

SMILES: CS(=O)(=O)N(CC(=O)NCc1ccc2c(c1)OCO2)Cc1ccc(Cl)cc1
- AC50 [1]: 1.46 µM [rising, partial curve, poor fit]

SMILES: Cc1ccc2nc(Cl)c(C3CC(c4cccs4)=NN3S(C)(=O)=O)cc2c1 (stereo unspecified)
- cell number change: 14.8%
- AC50 [2]: 0.103 µM [falling, full curve, poor fit]

SMILES: CN1C(=O)N(C)C2C1N(C)S(=O)(=O)N2C (stereo unspecified)
- cell number change: -2.6%
- AC50 [2]: 7.31 µM [falling, partial curve]

SMILES: Cc1ccccc1NC(=O)c1ccc(N/N=C/c2ccccc2O)c([N+](=O)[O-])c1
- cell number change: 9.27%
- AC50 [2]: 6.51 µM [falling, single point]

SMILES: c1ccc(Cn2ncc3c(NCc4ccco4)ncnc32)cc1
- cell number change: -30.8%
- AC50 [1]: 32.6 µM [falling, partial curve, poor fit]

SMILES: COc1ccc(NC(=O)COC(=O)CCc2ccccc2)c(OC)c1
- cell number change: -6.31%
- AC50 [2]: 0.58 µM [falling, single point]

SMILES: O=C(c1ccco1)N1CCN(Cc2nc3cc(Cl)ccc3c(=O)[nH]2)CC1
- cell number change: 51.1%

SMILES: Cc1ccc(C(O)c2cccnc2)o1 (stereo unspecified)
- cell number change: 8.38%
- AC50 [1]: 2.59 µM [rising, single point]
- AC50 [2]: 0.326 µM [falling, partial curve]

SMILES: CCCC(=O)NC(c1ccc2c(c1)OCO2)c1cc(Cl)c2cccnc2c1O (stereo unspecified)
- cell number change: 2.41%
- AC50 [2]: 4.61 µM [falling, single point]

SMILES: CCOc1ccc(OCC(=O)OCC(=O)NCC2CCCO2)cc1 (stereo unspecified)
- cell number change: -12.3%
- AC50 [2]: 29.1 µM [rising, single point]

SMILES: CCOC(=O)C1CCN(CC(=O)Nc2cc(C)nn2-c2nc3ccccc3s2)CC1
- cell number change: 8.37%
- AC50 [2]: 0.116 µM [falling, full curve, poor fit]

SMILES: CCOC(=O)CNC(=O)C(CO)NC(=O)OCc1ccccc1 (stereo unspecified) (Cbz-[ξS]-Gly-OEt)
- cell number change: -41.7%
- AC50 [1]: 1.84 µM [falling, full curve]
- AC50 [2]: 29.1 µM [falling, single point]

SMILES: Cc1cc(C)c(S(=O)(=O)N2CCN(C(=O)CCn3nc(C)c(C)c3C)CC2)c(C)c1
- cell number change: -17.9%

SMILES: Cc1nc(NC(=O)CSc2nnc(C3CC3)n2C)sc1C(=O)N(C)C
- cell number change: -0.276%
- AC50 [2]: 23.1 µM [falling, single point]

SMILES: O=S(=O)(c1cccc2nonc12)N1CCCCC1
- cell number change: -1.47%
- AC50 [2]: 29.1 µM [rising, single point]

SMILES: CCn1c(=O)n(CC)c2cc(N3CCCC3)c(NC(=O)c3cc(Br)ccc3OC)cc21
- cell number change: -15.1%
- AC50 [2]: 7.31 µM [falling, partial curve]

SMILES: COc1cc(NC(=O)CSc2nccc(C)n2)c(C)cc1[N+](=O)[O-]
- cell number change: 30.5%
- AC50 [1]: 16.4 µM [rising, single point]
- AC50 [2]: 29.1 µM [rising, partial curve]

SMILES: CCc1cc(N2CCOCC2)cc2c1[nH]c1ccccc12
- cell number change: 5.61%
- AC50 [2]: 29.1 µM [rising, single point]
